Assay results reported in publication PMC11531844.
No constants are given. Whether binding was seen depends on the method and setting. Some results given as binding are weak or reduced against the parent protein; the word gives no strength.

Chains of the proteins cited; added tags and fusions are not shown.
UniProt Q9DBC7: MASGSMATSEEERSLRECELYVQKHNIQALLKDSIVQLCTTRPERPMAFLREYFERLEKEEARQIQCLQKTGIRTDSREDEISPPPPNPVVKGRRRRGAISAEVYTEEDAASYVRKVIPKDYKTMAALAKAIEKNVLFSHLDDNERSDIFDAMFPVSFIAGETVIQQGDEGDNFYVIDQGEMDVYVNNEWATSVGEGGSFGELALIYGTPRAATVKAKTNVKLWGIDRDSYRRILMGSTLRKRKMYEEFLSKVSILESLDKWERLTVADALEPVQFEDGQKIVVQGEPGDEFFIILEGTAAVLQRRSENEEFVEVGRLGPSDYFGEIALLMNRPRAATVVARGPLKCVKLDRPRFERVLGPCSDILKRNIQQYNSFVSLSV
UniProt P12849: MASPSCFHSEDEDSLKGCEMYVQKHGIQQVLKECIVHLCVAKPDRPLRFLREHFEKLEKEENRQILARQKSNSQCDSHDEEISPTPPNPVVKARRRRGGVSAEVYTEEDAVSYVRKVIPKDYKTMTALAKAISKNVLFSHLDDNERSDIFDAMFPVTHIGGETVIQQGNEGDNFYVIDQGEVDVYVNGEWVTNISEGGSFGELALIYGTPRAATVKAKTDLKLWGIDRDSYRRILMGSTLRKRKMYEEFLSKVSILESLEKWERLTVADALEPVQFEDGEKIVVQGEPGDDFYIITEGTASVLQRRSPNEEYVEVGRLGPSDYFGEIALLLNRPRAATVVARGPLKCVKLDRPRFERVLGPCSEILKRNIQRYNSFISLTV

Experiments:
[1] = target: PKA regulatory subunit RIα, endogenous, mouse brain (mouse (endogenous in brain tissue)) (UniProt Q9DBC7); test: non-reducing SDS-PAGE with immunoblot; soluble fractions of brain lysates from young (3-4 months) and old (16-20 months) WT or L50R heterozygous mice, non-reduced gel, blot with RIβ-specific or RIα-specific antibody
[2] = target: PKA regulatory subunit RIβ, endogenous, wild-type mouse brain (mouse (endogenous in brain tissue)) (UniProt P12849); test: as above

## PKA regulatory subunit RIα, endogenous, mouse brain (from UniProt Q9DBC7 1-381)
[1]
  binding: binds

## PKA regulatory subunit RIβ, endogenous, wild-type mouse brain (from UniProt P12849 1-381)
[2]
  binding: binds
